For assay [1], the target named is Fc-eNKG2D5 (Y152A/Y199F) (human). Nature of the assay: BLI (Octet), ligands captured on AHC tips. Background: Biolayer interferometry detects binding as a change in optical thickness at a sensor tip.
For assay [2], the target named is Fc-NKG2D.Y152A (human). Nature of the assay: BLI (Octet), ligands captured on AHC tips.
Assay [3] addresses T1, murine NKG2D-Fc (murine) (UniProt O54709).
T1 sequence (looked up): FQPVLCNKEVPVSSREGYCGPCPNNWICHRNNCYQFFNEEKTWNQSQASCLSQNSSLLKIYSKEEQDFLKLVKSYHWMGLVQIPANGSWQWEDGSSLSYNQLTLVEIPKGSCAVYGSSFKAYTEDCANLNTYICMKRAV
The assay is described as follows: competition ELISA with murine NKG2D-Fc. Background: ELISA stands for enzyme-linked immunosorbent assay.

The target of assay [4] is Fc-NKG2D.Y152A (human). The assay is described as follows: ELISA and Octet, monomeric His-tagged format.

Results are given in words; binding and its absence hold for the method and conditions named. Some results given as binding are weak or reduced against the parent protein; the word gives no strength. Where a sequence is shown, tags or fusion partners need not be part of it.

This passage reports binding results from patent publication US20200239541A1.

B1: MICA-Fc (R&D Systems) (Fc fusion, human, UniProt Q29983 24-308, looked up, not shown: a dimerising Fc or GST)
chain: EPHSLRYNLTVLSWDGSVQSGFLTEVHLDGQPFLRCDRQKCRAKPQGQWAEDVLGNKTWDRETRDLTGNGKDLRMTLAHIKDQKEGLHSLQEIRVCEIHEDNSTRSSQHFYYDGELFLSQNLETKEWTMPQSSRAQTLAMNVRNFLKEDAMKTKTHYHAMHADCLQELRRYLKSGVVLRRTVPPMVNVTRSEASEGNITVTCRASGFYPWNITLSWRQDGVSLSHDTQQWGDVLPDGNGTYQTWVATRICQGEEQRFTCYMEHSGNHSTHPVPSGKVLVLQSHWQ
As for B1, the binding result in assay [1] and in assay [2] was “binds” each time.

B2: WT α1-α2 domain (soluble wild-type MICA, titrated) (ligand, UniProt Q29983 24-204, looked up)
chain: EPHSLRYNLTVLSWDGSVQSGFLTEVHLDGQPFLRCDRQKCRAKPQGQWAEDVLGNKTWDRETRDLTGNGKDLRMTLAHIKDQKEGLHSLQEIRVCEIHEDNSTRSSQHFYYDGELFLSQNLETKEWTMPQSSRAQTLAMNVRNFLKEDAMKTKTHYHAMHADCLQELRRYLKSGVVLRRT
As for B2, the binding result in assay [3] was “binds”.

B3: ULBP2.S3, monomeric His-tagged (ligand, not shown: small tags and cut ends)
chain: AAEPHSLSYDITVIPKFRPGPRWCAVQGQVDEKTFLHYDCGNKTVTPVSPLGKKLNVTTAWKAQNPVLREVVDILTEQLWDIQLENYTPKEPLTLQARMSCEQKAEGHSSGSWQFSFDGQIFLLFDSEKRMWTTVHPGARKMKEKWENDKVVATKLYLWSMGDCIGWLEDFLMGMDSTLEPSAGAP
In the case of B3, in assay [4], the binding result is “binds”.
